{"source": "patent US20240239729A1", "about": "“Functionalization of Lightly Branched Olefin Oligomers” (priority 2021, published 2024)", "assay": "Wetting time (skein test)", "assay_type": "physicochemical", "conditions": "average of three measurements; for Wetting time (1 g/L, s): 1 g/L surfactant; for Wetting time (2 g/L, s): 2 g/L surfactant"}
{"smiles": "CCCCCCCCCCCCCOS(=O)(=O)[O-].[Na+]", "note": "[Entry 5, Sodium n-Tridecyl Sulfate]", "values": [{"measurement": "Wetting time (1 g/L, s)", "value": 6.3, "unit": "s"}, {"measurement": "Wetting time (2 g/L, s)", "value": 3.1, "unit": "s"}]}
{"smiles": "CCCC(C)CCCC(C)CCCOS(=O)(=O)O", "note": "(stereo not shown) [Entry 8, 4,8-dimethylundecan-1-sulfate]", "values": [{"measurement": "Wetting time (1 g/L, s)", "value": 6.1, "unit": "s"}, {"measurement": "Wetting time (2 g/L, s)", "value": 2.3, "unit": "s"}]}
